Molecules are shown by their SMILES. The list shows a part of the results. The main result of the screen is listed elsewhere. These columns were measured beside it and carry no call. Most of these compounds were active or inconclusive in the main read-out, so they are no random draw. The note in brackets gives the kind of curve behind each potency; many fits are weak.

The test is described as follows: Cell signaling CRE-BLA (Fsk stim). Particulars: CHO CRE-bla reporter (cAMP response element driving beta-lactamase), forskolin EC10, beta-lactamase ratio; measured here: 460 nm blue channel. The method, boiled down:
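Modulation of forskolin-driven signalling is measured in CHO cells carrying a CRE-controlled beta-lactamase reporter. Cells are stimulated with EC10 NKH 477 in the presence of titrated compound for 3 h at 37 °C, then loaded with CCF4 for 2 h at room temperature.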
Consider `CCN1CCN(CC(=O)Nc2c(C(=O)OC)[nH]c3cccc(Cl)c23)CC1`, for which the AC50 is 3.16 µM [falling, full curve, poor fit].
The value for `O=C(O)C1CC(=O)N(c2ccc(F)c(F)c2)C1` (centres undefined) was 0.00398 µM [falling, full curve, poor fit].
As for `CCN=C1SC(CC(=O)Nc2sc(C)c(C)c2C(=O)OC)C(=O)N1CC` (centres undefined), the figure is 2.51 µM [rising, partial curve]; as for `Cc1cc(O)c2c(c1)C(=O)c1cc(O)cc(O)c1C2=O`, 1.26 µM [rising, full curve, poor fit]; as for `COC(=O)C1CCN(c2cc(=O)n(C3CCCCC3)c(=O)[nH]2)CC1`, 0.251 µM [rising, partial curve].
With `Cc1cc(C)n(-c2ccc(C(=O)OCC(=O)Nc3ccc(S(=O)(=O)N4CCOCC4)cc3)cc2)n1`, the AC50 is 20 µM [falling, single point].
As for `CCCCn1c(=O)c2c(c3ccccc31)OCC(=O)N2`, the figure is 1.26 µM [rising, partial curve].
The value for `CCOC(=O)CCCSc1nc2sc(C)c(C)c2c(=O)[nH]1` was 10 µM [rising, partial curve]; that for `Cc1ccc(SCc2nc(-c3cccnc3)no2)cc1` was 12.6 µM [rising, partial curve].
The value for `Cc1cc(NC(=O)CSc2nc(-c3ccco3)cc(C(F)(F)F)n2)n(-c2ccccc2)n1` was 7.94 µM [rising, partial curve]; that for `COc1ccc(CCC(=O)Nc2ccc(-c3noc(-c4ccc(OC)c(OC)c4)n3)cc2)cc1` was 7.94 µM [falling, partial curve]; that for `N#Cc1cc2ccccc2nc1SCc1ccccn1` was 12.6 µM [rising, single point].
For the compound `CCOC(=O)c1sc(=S)n(CC)c1N`, the AC50 is 12.6 µM [rising, partial curve].
The value for `O=C(CN1CCC2(CC1)OCCO2)c1ccc2cc[nH]c2c1` was 1.26 µM [rising, full curve, poor fit]; that for `C=CCn1c(SCc2c(C)noc2C)nc2sc3c(c2c1=O)CCCCC3` was 2.51 µM [rising, full curve].
`CCc1cc2c(NCCN3CCCCC3)ncnc2s1`: the half-maximal activity concentration (AC50) was 0.126 µM [falling, single point].
As for `CCOC(=O)N1CCN(c2nc(C)cc(C(F)(F)F)n2)CC1`, the figure is 0.0794 µM [falling, full curve]; as for `Cn1c(=O)c(-c2ccccc2)nc2cnc(Nc3ccccc3)nc21`, 5.01 µM [rising, partial curve].
For `CC(=O)Oc1ccc(C(=O)Nc2nccs2)cc1`, the AC50 was 31.6 µM [falling, single point].
The value for `C=CC1=C(C)C2=NC1=CC1=NC(=CC3=NC(=CC4=NC(=C2)C(C)=C4CCC(=O)O)C(CCC(=O)O)=C3C)C(C=C)=C1C.[Zn]` was 25.1 µM [falling, partial curve]; that for `Nn1c(SC/C=C/c2ccccc2)nnc1-c1ccncc1` was 1 µM [rising, single point]; that for `CC(=O)c1cc2c(cc1NC(=O)CCCC(=O)O)OCO2` was 0.0316 µM [falling, full curve, poor fit].
As for `CN(C)C(=O)c1ccc(-c2ccc3ncnc(N(C)C)c3c2)cc1`, the figure is 12.6 µM [rising, partial curve]; as for `Cc1cccc(NS(=O)(=O)c2ccccc2)n1`, 3.16 µM [rising, partial curve].
The value for `CCOC(=O)c1c(CN2CCCCC2)n(C)c2cc(Br)c(OC)cc12` was 10 µM [rising, partial curve].
Turning to `O=C(O)c1oc2ccc(Br)cc2c1-n1cccc1`, the half-maximal activity concentration (AC50) is 3.16 µM [falling, full curve, poor fit].
As for `CCOC(=O)N1CCN(C(=O)c2cc(-c3ccc(OCC)cc3)nc3ccccc23)CC1`, the figure is 12.6 µM [rising, single point]; as for `Nc1ccc2oc(-c3cccc4ccccc34)nc2c1`, 10 µM [rising, single point].
Consider `CC(C)(C)c1ccc(-c2nc(C#N)c(NCc3ccncc3)o2)cc1`, for which the AC50 is 12.6 µM [rising, partial curve].
As for `COc1ccc(Oc2ncc3nc(-c4ccc(F)cc4)c(=O)n(Cc4cccs4)c3n2)cc1`, the figure is 15.8 µM [rising, partial curve].
As for `COc1cc(C(=O)N2CCN=C2c2ccccc2)cc(OC)c1OC`, the figure is 12.6 µM [rising, single point]; as for `O=C1C(SCCO)=C(SCCO)C(=O)c2ccccc21`, 5.01 µM [falling, full curve]; as for `O=C(CN(c1ccccc1F)S(=O)(=O)c1ccccc1)N1CCCCCC1`, 0.0126 µM [rising, full curve].
As for `N#Cc1nc(COc2ccccc2)oc1N1CCN(Cc2ccccc2)CC1`, the figure is 1 µM [rising, full curve]; as for `COc1ccc(Nc2nc3c(c(=O)n(C)c(=O)n3C)n2CCO)cc1`, 10 µM [rising, single point].
On to `Cc1nn2c(-c3ccco3)nnc2c2ccccc12`, for which the concentration at half-maximal activity (AC50) was 12.6 µM [rising, partial curve].
As for `CC(=O)Nc1nc2c(c3c1c(=O)oc1ccccc13)CC(C)CC2` (centres undefined), the half-maximal activity concentration (AC50) is 12.6 µM [rising, single point].
For `COc1cc2c(cc1OC)-c1cc(N3CCCCCC3)nc(=O)n1CC2`, the concentration at half-maximal activity (AC50) is 0.158 µM [rising, full curve].
As for `Cn1c(=O)[nH]c(=O)c2c1nc(SCCN1CCOCC1)n2Cc1ccccc1`, the figure is 15.8 µM [rising, single point].
The value for `CCOc1ccc2nc(NCCNC(=O)Nc3cccc(C)c3)c(C#N)cc2c1` was 12.6 µM [rising, partial curve]; that for `C=CCOC(=O)c1[nH]c2c(c1C)C(=O)CC(c1ccco1)C2` (centres undefined) was 1 µM [rising, full curve]; that for `C/C(=N\S(=O)(=O)c1ccc(C)cc1)N1CCN(S(=O)(=O)c2ccccc2)C1` was 0.00398 µM [falling, full curve, poor fit].
As for `COc1ccc(C(=O)N2CCC(n3c(C)nc4cc(F)ccc43)CC2)cc1OC`, the AC50 was 12.6 µM [rising, single point].
For `CCOc1ccc(C2C(C#N)=C(N)SC(N)=C2C#N)c(OCC)c1`, the AC50 is 12.6 µM [rising, single point].
The value for `CCOc1ccc(OCC)c(NC(=O)CN2CCN(c3cc(C)ccc3C)CC2)c1` was 0.398 µM [falling, single point]; that for `CCCC/C=C/C(NC(=O)C(C)(C)C)c1ccccc1` (centres undefined) was 25.1 µM [rising, single point].
In the case of `COc1cc(/C=C/C(=O)CC(=O)/C=C/c2ccc(O)c(OC)c2)ccc1O`, the half-maximal activity concentration (AC50) is 25.1 µM [rising, partial curve].
The value for `Cc1cccc(CNc2cc(-c3cccc(C#N)c3)ncn2)c1` was 3.16 µM [rising, full curve, poor fit]; that for `CCCCS(=O)(=O)NC1=NCN(CC)CN1` was 0.00316 µM [rising, full curve, poor fit].
On to `COc1cc2c(cc1OC)CN(C(=O)CSc1nc(N)c(C#N)cc1C#N)CC2`, for which the AC50 is 7.94 µM [rising, partial curve].
`CC(C#N)Sc1nc2ccccc2c(=O)n1-c1ccccc1` (centres undefined): the concentration at half-maximal activity (AC50) is 12.6 µM [rising, partial curve].
As for `COc1ccc(CNc2ccnc(-c3cccc(NS(C)(=O)=O)c3)n2)c(OC)c1`, the figure is 10 µM [rising, partial curve]; as for `CC1CCN(S(=O)(=O)c2cc(Cl)ccc2Br)CC1`, 5.01 µM [falling, partial curve, poor fit].
As to `CN(Cc1ccccc1)C(=O)c1cc(-c2ccc(Br)cc2)on1`, the concentration at half-maximal activity (AC50) is 10 µM [rising, partial curve].
As for `COc1cccc(Nc2ncc3nc(-c4ccc(Cl)cc4)c(=O)n(CCC#N)c3n2)c1`, the figure is 2.51 µM [rising, full curve]; as for `CCOC(=O)CNc1nnc(SCC(=O)OCC)[nH]c1=O`, 7.94 µM [falling, partial curve].
Turning to `Cc1cc(NC(=O)CNC(=O)C2CCCCC2)no1`, the AC50 was 0.631 µM [rising, partial curve].
On to `COc1cc(SC)ccc1C(=O)NCCCOC(C)C`, for which the concentration at half-maximal activity (AC50) was 3.16 µM [falling, single point].
For the compound `CCOC(=O)CN1C(=O)C(C)(C)Oc2ccc(C(=O)NC(C)(C)CC)cc21`, the half-maximal activity concentration (AC50) was 3.16 µM [rising, single point].
As for `COc1cccc(-n2cc3c(c2-c2ccccc2)c(=O)n(C)c(=O)n3C)c1`, the figure is 10 µM [rising, single point]; as for `CCOC(=O)C1=C(C)NC(C)=C(C(=O)OCC)C1c1cc2ccc(C)cc2[nH]c1=O`, 25.1 µM [rising, single point]; as for `N#Cc1nc(Cc2ccccc2)oc1NCc1ccccc1Cl`, 10 µM [falling, partial curve].
As for `COc1cccc(Cn2c(=O)c(CCc3ccccc3)nc3cnc(N4CCN(C)CC4)nc32)c1`, the figure is 12.6 µM [rising, partial curve].
The value for `N#Cc1cccc(-c2ccc3ncnc(NCCN4CCOCC4)c3c2)c1` was 12.6 µM [rising, partial curve].
Consider `Cn1cc(-c2nc3cncnc3n(Cc3ccc(F)cc3)c2=O)c2ccccc21`, for which the AC50 is 25.1 µM [rising, single point].
On to `Cn1c(=O)[nH]c(=O)c2c1nc(N1CCCCC1)n2CCCSc1nc2ccccc2s1`, for which the AC50 was 3.98 µM [rising, partial curve].
Regarding `Cn1ccnc1C(=O)c1cc(=O)c2ccccc2o1`, the half-maximal activity concentration (AC50) was 1.58 µM [falling, partial curve].
As to `CCCC(C)C(=O)Nc1cccc(NC(C)=O)c1` (centres undefined), the AC50 is 1 µM [rising, single point].
The value for `N#Cc1ccccc1Cn1c(=O)n(-c2ccc(CC(=O)NCc3ccco3)cc2)c(=O)c2sccc21` was 25.1 µM [rising, single point].

The values above are taken from PubChem BioAssay AID662 (National Center for Advancing Translational Sciences (NCATS), 2007).
